Results on ten molecules are retold here after article PMC4673834.

Chains of the proteins cited; added tags and fusions are not shown.
UniProt E9Q1P8: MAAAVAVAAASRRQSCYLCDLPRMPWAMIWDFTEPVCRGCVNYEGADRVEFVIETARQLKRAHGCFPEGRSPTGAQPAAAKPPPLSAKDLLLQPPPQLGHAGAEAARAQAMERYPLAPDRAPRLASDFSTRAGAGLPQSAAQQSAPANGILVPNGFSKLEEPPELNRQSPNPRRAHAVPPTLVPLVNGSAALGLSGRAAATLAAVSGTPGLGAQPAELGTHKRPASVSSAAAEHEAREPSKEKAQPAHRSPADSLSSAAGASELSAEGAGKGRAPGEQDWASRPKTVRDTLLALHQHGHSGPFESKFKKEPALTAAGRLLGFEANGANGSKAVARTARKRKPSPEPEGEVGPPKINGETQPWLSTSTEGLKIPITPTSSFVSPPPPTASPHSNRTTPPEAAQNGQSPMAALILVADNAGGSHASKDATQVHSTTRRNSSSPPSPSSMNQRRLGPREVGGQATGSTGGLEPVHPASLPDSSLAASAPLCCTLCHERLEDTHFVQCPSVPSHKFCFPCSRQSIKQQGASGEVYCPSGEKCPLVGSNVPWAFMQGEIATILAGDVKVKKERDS
UniProt P22091: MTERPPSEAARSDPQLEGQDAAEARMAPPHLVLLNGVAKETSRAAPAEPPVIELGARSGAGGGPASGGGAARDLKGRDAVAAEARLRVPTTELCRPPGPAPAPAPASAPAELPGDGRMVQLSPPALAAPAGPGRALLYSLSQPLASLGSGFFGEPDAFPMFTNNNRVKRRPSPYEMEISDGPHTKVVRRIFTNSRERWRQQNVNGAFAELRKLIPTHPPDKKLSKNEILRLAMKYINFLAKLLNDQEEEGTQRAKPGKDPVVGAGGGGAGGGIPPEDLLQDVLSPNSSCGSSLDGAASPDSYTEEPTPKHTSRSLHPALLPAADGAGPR
UniProt Q60974: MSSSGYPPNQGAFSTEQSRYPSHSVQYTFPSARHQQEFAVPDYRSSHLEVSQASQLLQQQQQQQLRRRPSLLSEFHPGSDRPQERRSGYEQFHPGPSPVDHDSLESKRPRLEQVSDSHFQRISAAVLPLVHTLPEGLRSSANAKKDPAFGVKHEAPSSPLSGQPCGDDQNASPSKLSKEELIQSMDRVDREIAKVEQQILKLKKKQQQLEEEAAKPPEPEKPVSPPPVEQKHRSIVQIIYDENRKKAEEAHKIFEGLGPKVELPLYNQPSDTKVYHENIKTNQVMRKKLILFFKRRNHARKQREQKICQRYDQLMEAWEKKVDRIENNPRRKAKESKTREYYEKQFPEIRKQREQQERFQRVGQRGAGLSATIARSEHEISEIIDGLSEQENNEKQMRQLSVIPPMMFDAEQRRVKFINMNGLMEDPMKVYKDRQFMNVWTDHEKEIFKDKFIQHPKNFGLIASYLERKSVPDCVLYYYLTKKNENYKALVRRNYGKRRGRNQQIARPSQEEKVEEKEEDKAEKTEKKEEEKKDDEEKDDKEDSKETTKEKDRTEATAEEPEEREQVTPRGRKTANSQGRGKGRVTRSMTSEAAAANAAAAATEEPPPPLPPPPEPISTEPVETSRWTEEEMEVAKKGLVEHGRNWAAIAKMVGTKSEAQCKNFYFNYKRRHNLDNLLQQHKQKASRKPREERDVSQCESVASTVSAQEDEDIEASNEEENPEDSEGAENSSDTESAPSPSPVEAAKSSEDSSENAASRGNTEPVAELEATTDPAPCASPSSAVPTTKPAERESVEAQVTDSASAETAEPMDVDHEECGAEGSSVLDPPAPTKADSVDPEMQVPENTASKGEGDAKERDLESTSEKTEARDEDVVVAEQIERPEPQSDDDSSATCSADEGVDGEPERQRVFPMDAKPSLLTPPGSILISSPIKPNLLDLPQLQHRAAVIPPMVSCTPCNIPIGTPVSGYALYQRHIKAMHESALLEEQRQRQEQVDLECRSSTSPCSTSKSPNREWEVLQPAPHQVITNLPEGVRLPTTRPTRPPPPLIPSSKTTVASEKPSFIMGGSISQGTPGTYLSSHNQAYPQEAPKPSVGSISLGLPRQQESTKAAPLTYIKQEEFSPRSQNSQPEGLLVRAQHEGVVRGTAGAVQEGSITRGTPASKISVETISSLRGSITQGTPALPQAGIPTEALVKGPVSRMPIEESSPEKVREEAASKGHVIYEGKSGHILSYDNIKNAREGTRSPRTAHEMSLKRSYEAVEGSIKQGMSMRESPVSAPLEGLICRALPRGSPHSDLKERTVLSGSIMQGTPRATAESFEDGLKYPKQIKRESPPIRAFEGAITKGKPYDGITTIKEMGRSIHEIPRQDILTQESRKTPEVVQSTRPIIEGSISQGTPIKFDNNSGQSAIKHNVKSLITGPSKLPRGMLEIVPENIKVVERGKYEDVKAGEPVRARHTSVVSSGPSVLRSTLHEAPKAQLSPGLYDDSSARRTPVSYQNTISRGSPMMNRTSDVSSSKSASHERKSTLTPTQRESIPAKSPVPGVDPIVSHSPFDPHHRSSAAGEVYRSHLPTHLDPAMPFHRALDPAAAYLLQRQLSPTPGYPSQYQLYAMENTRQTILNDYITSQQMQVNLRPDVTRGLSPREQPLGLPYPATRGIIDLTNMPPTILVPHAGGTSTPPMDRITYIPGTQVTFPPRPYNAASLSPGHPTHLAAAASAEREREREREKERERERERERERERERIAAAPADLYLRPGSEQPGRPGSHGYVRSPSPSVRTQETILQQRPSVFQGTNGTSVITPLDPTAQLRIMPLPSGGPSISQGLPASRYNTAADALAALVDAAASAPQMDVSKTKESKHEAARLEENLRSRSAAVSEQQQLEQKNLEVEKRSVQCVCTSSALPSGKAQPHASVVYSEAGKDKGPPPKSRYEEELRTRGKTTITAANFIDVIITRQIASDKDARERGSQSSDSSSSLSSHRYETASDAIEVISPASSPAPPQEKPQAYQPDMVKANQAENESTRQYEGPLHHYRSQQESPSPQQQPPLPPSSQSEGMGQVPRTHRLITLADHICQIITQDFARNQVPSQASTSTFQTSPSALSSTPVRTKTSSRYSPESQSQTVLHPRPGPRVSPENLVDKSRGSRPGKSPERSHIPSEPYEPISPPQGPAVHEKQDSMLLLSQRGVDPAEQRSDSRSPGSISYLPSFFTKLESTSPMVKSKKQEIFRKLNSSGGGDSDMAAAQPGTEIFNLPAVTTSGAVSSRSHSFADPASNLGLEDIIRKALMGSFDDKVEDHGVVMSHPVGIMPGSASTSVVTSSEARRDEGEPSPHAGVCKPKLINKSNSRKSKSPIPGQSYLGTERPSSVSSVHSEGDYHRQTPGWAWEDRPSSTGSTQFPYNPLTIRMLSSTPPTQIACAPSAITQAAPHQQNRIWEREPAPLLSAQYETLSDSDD
UniProt O70237: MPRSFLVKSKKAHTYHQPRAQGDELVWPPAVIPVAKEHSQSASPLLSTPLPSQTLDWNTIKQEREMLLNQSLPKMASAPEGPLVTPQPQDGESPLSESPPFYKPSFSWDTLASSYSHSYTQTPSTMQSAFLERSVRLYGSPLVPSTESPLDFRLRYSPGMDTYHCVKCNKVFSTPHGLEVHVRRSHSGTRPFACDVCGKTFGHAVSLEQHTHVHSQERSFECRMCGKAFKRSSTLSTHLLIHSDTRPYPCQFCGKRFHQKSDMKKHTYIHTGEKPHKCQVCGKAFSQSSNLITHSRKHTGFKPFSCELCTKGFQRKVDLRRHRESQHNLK
UniProt Q8K3X4: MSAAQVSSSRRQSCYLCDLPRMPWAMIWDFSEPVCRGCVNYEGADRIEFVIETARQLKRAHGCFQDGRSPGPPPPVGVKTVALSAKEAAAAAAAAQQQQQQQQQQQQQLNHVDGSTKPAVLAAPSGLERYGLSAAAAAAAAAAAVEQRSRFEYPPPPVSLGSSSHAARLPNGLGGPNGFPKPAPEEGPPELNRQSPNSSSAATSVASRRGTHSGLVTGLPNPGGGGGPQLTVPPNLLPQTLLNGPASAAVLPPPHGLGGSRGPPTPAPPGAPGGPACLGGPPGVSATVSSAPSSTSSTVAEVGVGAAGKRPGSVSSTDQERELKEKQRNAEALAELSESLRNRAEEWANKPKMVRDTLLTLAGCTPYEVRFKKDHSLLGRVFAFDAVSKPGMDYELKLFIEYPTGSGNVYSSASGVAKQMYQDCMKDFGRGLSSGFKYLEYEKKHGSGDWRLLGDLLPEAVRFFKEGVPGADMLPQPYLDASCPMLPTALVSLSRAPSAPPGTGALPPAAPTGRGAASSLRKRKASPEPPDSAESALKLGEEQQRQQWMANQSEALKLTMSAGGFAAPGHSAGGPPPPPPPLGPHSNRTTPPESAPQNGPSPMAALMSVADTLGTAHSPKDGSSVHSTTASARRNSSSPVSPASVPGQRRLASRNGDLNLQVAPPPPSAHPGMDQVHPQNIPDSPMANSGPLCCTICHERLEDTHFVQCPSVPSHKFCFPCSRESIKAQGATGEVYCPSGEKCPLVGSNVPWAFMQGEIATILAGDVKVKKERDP
UniProt Q8R3Y8: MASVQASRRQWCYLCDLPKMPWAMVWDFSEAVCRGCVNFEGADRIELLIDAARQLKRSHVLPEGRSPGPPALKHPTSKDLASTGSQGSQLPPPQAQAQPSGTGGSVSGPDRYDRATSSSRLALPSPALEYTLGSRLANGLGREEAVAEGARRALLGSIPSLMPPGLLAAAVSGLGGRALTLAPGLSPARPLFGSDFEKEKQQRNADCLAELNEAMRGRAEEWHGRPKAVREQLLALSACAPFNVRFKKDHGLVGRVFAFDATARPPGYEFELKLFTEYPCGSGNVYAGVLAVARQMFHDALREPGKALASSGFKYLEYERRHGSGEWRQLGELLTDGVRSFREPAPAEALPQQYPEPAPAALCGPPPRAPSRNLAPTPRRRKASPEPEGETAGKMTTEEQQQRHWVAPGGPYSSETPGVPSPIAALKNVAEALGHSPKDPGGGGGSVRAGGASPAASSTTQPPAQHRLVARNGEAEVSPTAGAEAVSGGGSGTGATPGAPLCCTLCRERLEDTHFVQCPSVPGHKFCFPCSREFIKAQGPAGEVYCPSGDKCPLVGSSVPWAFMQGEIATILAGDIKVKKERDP

For one test, the target named is T1, ETO2-V5-Bio (UniProt O54972).
T1 sequence (chain, Bio peptide of the tag biotinylated by the bacterial BirA enzyme): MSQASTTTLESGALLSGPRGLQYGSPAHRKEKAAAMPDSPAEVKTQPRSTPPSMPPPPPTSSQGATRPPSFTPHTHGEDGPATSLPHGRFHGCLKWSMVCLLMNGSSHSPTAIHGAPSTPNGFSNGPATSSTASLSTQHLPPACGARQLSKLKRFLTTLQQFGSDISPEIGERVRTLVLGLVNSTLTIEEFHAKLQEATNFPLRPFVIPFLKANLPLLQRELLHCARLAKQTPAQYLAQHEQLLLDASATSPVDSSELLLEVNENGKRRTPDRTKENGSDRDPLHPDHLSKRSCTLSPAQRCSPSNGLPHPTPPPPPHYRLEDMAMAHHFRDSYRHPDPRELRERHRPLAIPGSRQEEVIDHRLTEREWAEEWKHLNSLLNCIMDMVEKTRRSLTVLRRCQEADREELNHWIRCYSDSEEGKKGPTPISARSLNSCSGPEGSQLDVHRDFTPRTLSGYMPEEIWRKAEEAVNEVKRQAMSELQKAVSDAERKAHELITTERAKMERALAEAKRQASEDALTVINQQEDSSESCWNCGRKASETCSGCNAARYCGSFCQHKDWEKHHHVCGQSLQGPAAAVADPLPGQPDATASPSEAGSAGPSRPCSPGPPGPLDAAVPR
The test can be described thus: affinity purification with mass spectrometry; single-step streptavidin capture of ETO2-V5-Bio from MEL nuclear extracts, on-bead trypsin digestion, LC-MS/MS; filtered against BirA-only MEL cells; two independent experiments.

Test [1] concerns the target interferon regulatory factor 2-binding protein 2 (IRF2BP2), endogenous (mouse (endogenous in MEL)) (UniProt E9Q1P8). The test can be described thus: affinity purification with mass spectrometry; endogenous IRF2BP2 antibody cross-linked to protein G Sepharose, MEL nuclear extracts with benzonase, 3 h at 4 °C, washes in C-100 buffer (100 mM KCl), LC-MS/MS; control IgG.
Test [2] deals with T2, ETO2 (endogenous) (mouse (endogenous in MEL)) (UniProt O54972).
T2 sequence: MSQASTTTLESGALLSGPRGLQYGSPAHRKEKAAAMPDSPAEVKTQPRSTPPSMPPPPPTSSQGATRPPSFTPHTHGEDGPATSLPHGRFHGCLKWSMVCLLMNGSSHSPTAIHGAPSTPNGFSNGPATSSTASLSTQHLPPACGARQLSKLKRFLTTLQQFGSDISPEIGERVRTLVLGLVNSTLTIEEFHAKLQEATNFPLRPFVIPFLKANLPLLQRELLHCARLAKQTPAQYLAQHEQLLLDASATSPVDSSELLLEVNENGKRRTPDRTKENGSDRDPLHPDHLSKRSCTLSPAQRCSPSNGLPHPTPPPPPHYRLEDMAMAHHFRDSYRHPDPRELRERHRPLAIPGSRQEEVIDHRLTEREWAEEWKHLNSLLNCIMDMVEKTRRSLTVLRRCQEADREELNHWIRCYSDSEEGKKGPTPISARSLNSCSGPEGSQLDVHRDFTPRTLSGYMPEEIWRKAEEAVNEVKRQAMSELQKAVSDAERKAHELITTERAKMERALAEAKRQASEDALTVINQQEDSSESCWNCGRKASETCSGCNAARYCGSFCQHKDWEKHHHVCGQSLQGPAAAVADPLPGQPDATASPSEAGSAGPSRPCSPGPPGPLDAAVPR
The test can be described thus: affinity purification with mass spectrometry; endogenous ETO2 antibody cross-linked to protein G Sepharose, MEL nuclear extracts with benzonase, 3 h at 4 °C, washes in C-100 buffer (100 mM KCl), LC-MS/MS; control immunoglobulin.

For test [3], the target named is interferon regulatory factor 2-binding protein 2 (IRF2BP2), endogenous (mouse (endogenous in MEL)) (UniProt E9Q1P8). As to the kind of experiment: affinity purification with mass spectrometry; endogenous IRF2BP2 antibody cross-linked to protein G Sepharose, MEL nuclear extracts with benzonase, 3 h at 4 °C, washes in C-100 buffer (100 mM KCl), LC-MS/MS; control IgG. This is another data set of the same source.

Test [4] addresses T2, ETO2 (endogenous) (mouse (endogenous in MEL)). As to the kind of experiment: affinity purification with mass spectrometry; endogenous ETO2 antibody cross-linked to protein G Sepharose, MEL nuclear extracts with benzonase, 3 h at 4 °C, washes in C-100 buffer (100 mM KCl), LC-MS/MS; control immunoglobulin. This is another data set of the same source.

Like-named read-outs stand apart in the source and are kept apart here. These are yes or no findings as the source states them, for the method shown. In cells and extracts the contact can be indirect. Here binding means that the protein was enriched with, or labelled near, the bait; the list need not be complete. For some assays here: A no says only that the protein was not detected with the bait. For some assays here: Sequences can lack the tags named with a protein.

Take “T-cell acute lymphocytic leukaemia protein 1 (TAL1) (from UniProt P22091 1-329)”: the binding result with ETO2-V5-Bio is on record as “binds”.
NCOR1 (from UniProt Q60974 1-2453): in test [1], the binding entry is on record as “binds”.
As for “single-stranded DNA-binding protein 4 (SSBP4) (mouse (endogenous in MEL))”, in the test with ETO2-V5-Bio, the binding result was “binds”.
With “growth factor-independent 1B (GFI1B) (from UniProt O70237 1-330)”, the binding result (with ETO2-V5-Bio; in test [2]) was “binds” each time.
In the case of IRF2BPL (from UniProt Q8K3X4 1-775), in test [1], the binding entry is reported as “binds”.
Regarding IRF2BP1 (from UniProt Q8R3Y8 1-584), the binding entry in test [1] was “binds”.

B1: single-stranded DNA-binding protein 2 (SSBP2) (protein, UniProt Q9CYZ8 1-361)
chain: MYGKGKSNSSAVPSDSQAREKLALYVYEYLLHVGAQKSAQTFLSEIRWEKNITLGEPPGFLHSWWCVFWDLYCAAPERRETCEHSSEAKAFHDYSAAAAPSPVLGNMPPGDGMPVGPVPPGFFQPFMSPRYPGGPRPPLRIPNQALGGVPGSQPLLPSGMDPTRQQGHPNMGGPMQRMTPPRGMVPLGPQNYGGAMRPPLNALGGPGMPGMNMGPGGGRPWPNPTNANSIPYSSASPGNYVGPPGGGGPPGTPIMPSPADSTNSGDNMYTLMNAVPPGPNRPNFPMGPGSDGPMGGLGGMESHHMNGSLGSGDMDSISKNSPNNMSLSNQPGTPRDDGEMGGNFLNPFQSESYSPSMTMSV
On to B1, for which the binding entry with ETO2-V5-Bio was “binds”.

B2: cyclin-dependent kinase 11B (protein, UniProt P24788 1-784)
chain: MGDEKDSWKVKTLDEILQEKKRRKEQEEKAEIKRLKNSDDRDSKRDSLEEGELRDHRMEITIRNSPYRREDSMEDRGEEDDSLAIKPPQQMSRKEKAHHRKDEKRKEKRRHRSHSAEGGKHARVKEKEREHERRKRHREEQDKARREWERQKRREMAREHSRRERDRLEQLERKRERERKLREQQKEQREQKERERRAEERRKEREARREVSAHHRTMREEYSDKGKVGHWSRSPLRPPRERFEMGDNRKPVKEEKVEERDLLSDLQDISDSERKTSSAESSSAESGSGSEEEEEEEEEEEEEEGSTSEESEEEEEEEEEEEEEETGSNSEEASEQSAEEVSDEEMSEDEDRENENHILVVPESRFDRDSGDSEEGEEEVGEGTPQSSAPTEGDYVPDSPALSPIELKQELPKYLPALQGCRSVEEFQCLNRIEEGTYGVVYRAKDKKTDEIVALKRLKMEKEKEGFPITSLREINTILKAQHPNIVTVREIVVGSNMDKIYIVMNYVEHDLKSLMETMKQPFLPGEVKTLMIQLLSGVKHLHDNWILHRDLKTSNLLLSHAGILKVGDFGLAREYGSPLKAYTPVVVTLWYRAPELLLGAKEYSTAVDMWSVGCIFGELLTQKPLFPGKSDIDQINKIFKDLGTPSEKIWPGYNDLPAVKKMTFSEYPYNNLRKRFGALLSDQGFDLMNKFLTYYPGRRINAEDGLKHEYFRETPLPIDPSMFPTWPAKSEQQRVKRGTSPRPPEGGLGYSQLGDDDLKETGFHLTTTNQGASAAGPGFSLKF
Take B2: in test [3], the binding entry is recorded as “binds”.

B3: single-stranded DNA-binding protein 3 (SSBP3) (protein, UniProt Q9D032 1-388)
chain: MFAKGKGSAVPSDGQAREKLALYVYEYLLHVGAQKSAQTFLSEIRWEKNITLGEPPGFLHSWWCVFWDLYCAAPERRDTCEHSSEAKAFHDYSAAAAPSPVLGNIPPNDGMPGGPIPPGFFQGPPGSQPSPHAQPPPHNPSSMMGPHSQPFMSPRYAGGPRPPIRMGNQPPGGVPGTQPLLPNSMDPTRQQGHPNMGGSMQRMNPPRGMGPMGPGPQNYGSGMRPPPNSLGPAMPGINMGPGAGRPWPNPNSANSIPYSSSSPGTYVGPPGGGGPPGTPIMPSPADSTNSSDNIYTMINPVPPGGSRSNFPMGPGSDGPMGGMGGMEPHHMNGSLGSGDIDGLPKNSPNNISGISNPPGTPRDDGELGGNFLHSFQNDNYSPSMTMSV
For B3, the binding entry in the test with ETO2-V5-Bio is listed as “binds”.

B4: SIN3 transcription regulator family member A (Sin3A) (protein, UniProt Q60520 1-1274)
chain: MKRRLDDQESPVYAAQQRRIPGSTEAFSHQHRVLAPAPPVYEAVSETMQSATGIQYSVAPNYQVSAVPQSSGSHGPAIAAVHSSHHHPTAVQPHGGQVVQSHAHPAPPVAPVQGQQQFQRLKVEDALSYLDQVKLQFGSQPQVYNDFLDIMKEFKSQSIDTPGVISRVSQLFKGHPDLIMGFNTFLPPGYKIEVQTNDMVNVTTPGQVHQIPTHGIQPQPQPPPQHPSQPSSQSAPTPAQPAPQPTAAKVSKPSQLQAHTPASQQTPPLPPYASPRSPPVQPHTPVTISLGTAPSLQNNQPVEFNHAINYVNKIKNRFQGQPDIYKAFLEILHTYQKEQRNAKEAGGNYTPALTEQEVYAQVARLFKNQEDLLSEFGQFLPDANSSVLLSKTTAEKVDSVRNDHGGTVKKPQLNNKPQRPSQNGCQIRRHSGTGATPPVKKKPKLMSLKESSMADASKHGVGTESLFFDKVRKALRSAEAYENFLRCLVIFNQEVISRAELVQLVSPFLGKFPELFNWFKNFLGYKESVHLESFPKERATEGIAMEIDYASCKRLGSSYRALPKSYQQPKCTGRTPLCKEVLNDTWVSFPSWSEDSTFVSSKKTQYEEHIYRCEDERFELDVVLETNLATIRVLEAIQKKLSRLSAEEQAKFRLDNTLGGTSEVIHRKALQRIYADKAADIIDGLRKNPSIAVPIVLKRLKMKEEEWREAQRGFNKVWREQNEKYYLKSLDHQGINFKQNDTKVLRSKSLLNEIESIYDERQEQATEENAGVPVGPHLSLAYEDKQILEDAAALIIHHVKRQTGIQKEDKYKIKQIMHHFIPDLLFAQRGDLSDVEEEEEEEMDVDEATGAPKKHNGVGGSPPKSKLLFSNTAAQKLRGMDEVYNLFYVNNNWYIFMRLHQILCLRLLRICSQAERQIEEENREREWEREVLGIKRDKSDSPAIQLRLKEPMDVDVEDYYPAFLDMVRSLLDGNIDSSQYEDSLREMFTIHAYIAFTMDKLIQSIVRQLQHIVSDEVCVQVTDLYLAENNNGATGGQLNSQTSRSLLESAYQRKAEQLMSDENCFKLMFIQSQGQVQLTVELLDTEEENSDDPVEAERWSDYVERYMSSDTTSPELREHLAQKPVFLPRNLRRIRKCQRGREQQEKEGKEGNSKKTMENVESLDKLECRFKLNSYKMVYVIKSEDYMYRRTALLRAHQSHERVSKRLHQRFQAWVDKWTKEHVPREMAAETSKWLMGEGLEGLVPCTTTCDTETLHFVSINKYRVKYGTVFKAP
For B4, in test [4], the binding entry is given as “no binding”.
